In article PMC8593192:
Results are given in words; binding and its absence hold for the method and conditions named. In cells and extracts the contact can be indirect. Some results given as binding are weak or reduced against the parent protein; the word gives no strength.

The chains behind the UniProt entries cited, without tags or fusion partners. Where a name states a change or a piece, a line headed by the entry shows the natural chain unless it says otherwise.
UniProt Q13557: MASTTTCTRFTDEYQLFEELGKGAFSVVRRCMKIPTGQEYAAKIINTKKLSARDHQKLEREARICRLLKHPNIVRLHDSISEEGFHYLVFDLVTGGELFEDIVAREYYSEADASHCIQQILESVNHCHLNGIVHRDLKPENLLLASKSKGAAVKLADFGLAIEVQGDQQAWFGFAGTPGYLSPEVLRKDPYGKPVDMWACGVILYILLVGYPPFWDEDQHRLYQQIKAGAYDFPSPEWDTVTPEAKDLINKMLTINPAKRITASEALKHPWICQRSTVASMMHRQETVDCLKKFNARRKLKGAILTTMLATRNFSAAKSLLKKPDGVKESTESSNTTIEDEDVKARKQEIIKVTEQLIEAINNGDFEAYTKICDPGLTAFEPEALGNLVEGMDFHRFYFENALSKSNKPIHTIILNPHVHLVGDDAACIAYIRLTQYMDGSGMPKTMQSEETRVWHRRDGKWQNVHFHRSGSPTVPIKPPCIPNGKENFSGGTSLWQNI
UniProt Q9Y5Y9: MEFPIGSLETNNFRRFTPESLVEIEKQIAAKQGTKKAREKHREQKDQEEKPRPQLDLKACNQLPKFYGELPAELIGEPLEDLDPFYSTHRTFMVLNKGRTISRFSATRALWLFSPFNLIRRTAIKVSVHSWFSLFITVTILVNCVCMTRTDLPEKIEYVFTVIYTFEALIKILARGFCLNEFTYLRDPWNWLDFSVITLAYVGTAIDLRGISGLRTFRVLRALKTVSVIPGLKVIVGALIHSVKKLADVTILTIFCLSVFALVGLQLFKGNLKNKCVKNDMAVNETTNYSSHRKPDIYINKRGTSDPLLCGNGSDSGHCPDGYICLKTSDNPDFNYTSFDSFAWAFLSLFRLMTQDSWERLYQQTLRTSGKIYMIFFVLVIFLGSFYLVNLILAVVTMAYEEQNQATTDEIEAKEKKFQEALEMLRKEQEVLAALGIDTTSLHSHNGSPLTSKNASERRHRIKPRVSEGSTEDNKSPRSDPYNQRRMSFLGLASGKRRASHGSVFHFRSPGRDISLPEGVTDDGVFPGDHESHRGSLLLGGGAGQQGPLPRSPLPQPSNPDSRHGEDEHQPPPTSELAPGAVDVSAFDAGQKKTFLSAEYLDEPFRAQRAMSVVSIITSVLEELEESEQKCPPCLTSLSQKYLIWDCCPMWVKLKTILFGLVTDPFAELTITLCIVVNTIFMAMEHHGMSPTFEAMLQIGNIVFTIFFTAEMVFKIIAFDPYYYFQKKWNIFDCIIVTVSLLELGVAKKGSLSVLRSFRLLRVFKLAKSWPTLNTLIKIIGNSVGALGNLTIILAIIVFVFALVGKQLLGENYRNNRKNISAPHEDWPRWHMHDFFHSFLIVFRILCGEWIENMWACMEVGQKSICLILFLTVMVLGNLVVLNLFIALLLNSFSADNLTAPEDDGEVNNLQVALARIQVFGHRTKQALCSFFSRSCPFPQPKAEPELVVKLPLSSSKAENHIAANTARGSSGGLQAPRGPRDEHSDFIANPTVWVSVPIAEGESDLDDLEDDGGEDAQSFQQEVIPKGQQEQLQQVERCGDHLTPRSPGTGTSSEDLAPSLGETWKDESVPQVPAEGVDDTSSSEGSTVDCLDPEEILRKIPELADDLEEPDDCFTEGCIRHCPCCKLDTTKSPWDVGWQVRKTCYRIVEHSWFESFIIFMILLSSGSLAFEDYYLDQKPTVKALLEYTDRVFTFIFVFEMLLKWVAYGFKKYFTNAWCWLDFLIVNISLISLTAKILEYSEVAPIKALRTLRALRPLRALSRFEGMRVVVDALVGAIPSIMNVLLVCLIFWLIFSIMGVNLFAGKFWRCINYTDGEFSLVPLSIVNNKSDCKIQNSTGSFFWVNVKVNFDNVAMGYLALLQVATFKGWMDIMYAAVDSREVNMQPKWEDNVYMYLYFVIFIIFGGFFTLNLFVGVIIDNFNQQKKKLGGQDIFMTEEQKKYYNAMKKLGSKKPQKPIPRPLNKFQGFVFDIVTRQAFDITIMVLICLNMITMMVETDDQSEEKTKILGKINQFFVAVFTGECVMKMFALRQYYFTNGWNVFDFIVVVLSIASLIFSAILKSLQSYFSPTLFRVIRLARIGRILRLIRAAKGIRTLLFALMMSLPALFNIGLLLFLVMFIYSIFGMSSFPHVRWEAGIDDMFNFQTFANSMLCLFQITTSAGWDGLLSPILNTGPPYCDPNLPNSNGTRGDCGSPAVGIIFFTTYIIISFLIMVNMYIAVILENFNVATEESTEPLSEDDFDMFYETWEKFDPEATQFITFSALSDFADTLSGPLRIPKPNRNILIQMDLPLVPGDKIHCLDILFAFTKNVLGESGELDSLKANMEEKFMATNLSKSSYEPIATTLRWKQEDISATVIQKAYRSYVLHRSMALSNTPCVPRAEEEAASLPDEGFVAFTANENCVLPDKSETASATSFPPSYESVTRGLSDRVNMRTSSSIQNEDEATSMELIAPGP

Target: Ca2+/calmodulin-dependent protein kinase IIδc (human (endogenous in left ventricular myocardium)) (UniProt Q13557)
Experiment: co-IP; human left ventricular homogenates (non-failing and failing hearts) in 1% CHAPS in RIPA buffer, pH 7.4; CaMKIIδc immunoprecipitated with rabbit polyclonal anti-CaMKIIδ (3 μg/500 μg protein, overnight 4 °C) and protein G Plus Agarose; Western blot for NaV1.8

## NaV1.8 (voltage-gated sodium channel isoform encoded by the SCN10A gene) (from UniProt Q9Y5Y9 1-1956)
  binding: binds
